The text below walks through data of PubChem BioAssay AID330 (DTP/NCI, 2004).

This experiment concerns P388 leukemia ip, CD2F1 mice, survival T/C. Description: NCI In Vivo Anticancer Drug Screen. Data for tumor model P388 Leukemia (intraperitoneal) in CD2F1 (CDF1) mice. The note with it: T/C endpoint: median survival time, higher T/C = longer survival.

The list does not hold the whole screen: it gathers tests that were run many times, whatever their T/C, doses with no T/C, and many T/C values between a quarter and a half above the control. Other doses and runs of a compound stand elsewhere. T/C gives the treated animals as a percentage of the vehicle group. Some doses have a count of surviving animals in place of a T/C: the source holds a T/C of zero for them, seemingly a mark for toxic or unscored doses. Some survivor counts are full or nearly so, which does not show that the dose was tolerated: survival well below the control is almost never listed, so the zero probably covers shortened survival too. Counts of survivors are from the toxicity check (mostly the fifth day) where no day follows; animals may have died later. Schedule codes are those of the source, read here as Q, the interval in days (D) or hours (H), X, the number of doses. Some molecules as drawn cover several salts, stereoisomers or complexes of the source; a dose is that of the sample tested. Some entries were tested several times; the results are listed from low to high. Where survival is the endpoint, this PubChem deposit counts one and a half times the control or more as active, and values a quarter to a half above the control carry no call in these data; other NCI protocols may use other cut-offs. Counts like (3×) stand for listed records that agree. Some T/C values carry the count of animals alive at the toxicity check (mostly the fifth day); without a count, all were alive then.

As to `CCCN=C(N)c1ccc(N=C(N)c2ccc(N=C(N)c3ccc(C(N)=NCCC)cc3)cc2)cc1`, the T/C is 140 % of control (dose: 0.63 mg/kg/injection, schedule: Q01DX009 (ip), vehicle: saline); 127 % of control (dose: 5.0 mg/kg/injection, schedule: Q01DX009 (ip), vehicle: saline with Tween-80); 136 % of control (dose: 6.6 mg/kg/injection, schedule: Q01DX009 (ip), vehicle: saline); 136 % of control (dose: 10.0 mg/kg/injection, schedule: Q01DX009 (ip), vehicle: saline with Tween-80). For the same compound, the survivor count is, setting by setting: (dose: 100.0 mg/kg/injection, schedule: Q04DX003 (ip), vehicle: saline) 0 of 6; (dose: 200.0 mg/kg/injection, schedule: Q04DX003 (ip), vehicle: saline) 0 of 6; (dose: 400.0 mg/kg/injection, schedule: Q04DX003 (ip), vehicle: saline) 0 of 6.

Take `Cc1nc(C(=O)O)cc([N+](=O)[O-])c1C`: the survivor count (dose: 400.0 mg/kg/injection, schedule: Q01DX009 (ip), vehicle: other) is 0 of 6.

Turning to `Cn1cnc([N+](=O)[O-])c1Sc1ncn[nH]1`, the T/C (dose: 50.0 mg/kg/injection, schedule: Q01DX009 (ip), vehicle: saline) was 129 % of control (2×) and the T/C (dose: 100.0 mg/kg/injection, schedule: Q01DX009 (ip), vehicle: saline) was 133 % of control [5 of 6 alive].

Take `c1ccc(-c2ccc[n+](CC[n+]3cccc(-c4ccccn4)c3)c2)nc1`: for the setting “dose: 240.0 mg/kg/injection, schedule: Q01DX005 (ip), vehicle: saline with Tween-80”, the survivor count is recorded as 0 of 6.

With `Cc1c(O)ccc(N=O)c1O`, the survivor count is 0 of 6 (dose: 100.0 mg/kg/injection, schedule: Q01DX005 (ip), vehicle: saline with Tween-80) and 0 of 6 (dose: 200.0 mg/kg/injection, schedule: Q01DX005 (ip), vehicle: saline with Tween-80).

`CO[C@H]1/C=C/O[C@@]2(C)Oc3c(C)c(O)c4c(O)c(c(/C=N/N5CCNCC5)c(O)c4c3C2=O)NC(=O)/C(C)=C\C=C\[C@H](C)[C@H](O)[C@@H](C)[C@@H](O)[C@@H](C)C(OC(C)=O)[C@@H]1C` (some centres undefined): the survivor count (dose: 400.0 mg/kg/injection, schedule: Q01DX009 (ip), vehicle: saline with Tween-80) is recorded as 3 of 6.

With `CCCCS(=O)CC(CO)NC(=O)/C=C/c1c(C)[nH]c(=O)[nH]c1=O` (centres undefined), the T/C is 149 % of control (dose: 1.2 mg/kg/injection, schedule: Q01DX009 (ip), vehicle: water); 139 % of control (dose: 1.25 mg/kg/injection, schedule: Q01DX009 (ip), vehicle: water); 149 % of control (dose: 2.4 mg/kg/injection, schedule: Q01DX009 (ip), vehicle: water); 148 % of control (dose: 2.5 mg/kg/injection, schedule: Q01DX009 (ip), vehicle: water). In addition, the survivor count (dose: 10.0 mg/kg/injection, schedule: Q01DX009 (ip), vehicle: water) is on record as 3 of 6.

For the compound `CC1CCC2N(C1)CC1C3(O)CC45OC6(O)C(O)CCC4(C)C6CCC5C3(O)CC(O)C1(O)C2(C)O` (centres undefined), for the setting “dose: 200.0 mg/kg/injection, schedule: Q01DX005 (ip), vehicle: saline”, the survivor count is recorded as 2 of 6.

Consider `C/C(=N/NC(=O)c1ccccc1)c1ccc(Cl)cc1Cl`, for which the survivor count runs as follows: (dose: 25.0 mg/kg/injection, schedule: Q01DX009 (ip), vehicle: Klucel (hydroxypropylcellulose) (HPC)) 6 of 6; (dose: 50.0 mg/kg/injection, schedule: Q01DX009 (ip), vehicle: Klucel (hydroxypropylcellulose) (HPC)) 6 of 6.

As to `COc1ccc2c(c1O)-c1cccc3c1[C@@H](C2)N(CCCl)CC3`, the T/C is 126 % of control (dose: 4.0 mg/kg/injection, schedule: Q01DX009 (ip), vehicle: saline); 129 % of control (dose: 8.0 mg/kg/injection, schedule: Q01DX009 (ip), vehicle: Klucel (hydroxypropylcellulose) (HPC)); 134 % of control (dose: 12.5 mg/kg/injection, schedule: Q04DX003 (ip), vehicle: other); 128 [5 of 6 alive] and 132 % of control (dose: 16.0 mg/kg/injection, schedule: Q01DX009 (ip), vehicle: saline); 125 % of control (dose: 25.0 mg/kg/injection, schedule: Q04DX003 (ip), vehicle: other). Besides, the survivor count reads like this: (dose: 16.0 mg/kg/injection, schedule: Q01DX009 (ip), vehicle: Klucel (hydroxypropylcellulose) (HPC)) 3 of 6 and 5 of 6; (dose: 32.0 mg/kg/injection, schedule: Q01DX009 (ip), vehicle: Klucel (hydroxypropylcellulose) (HPC)) 0 of 6 and 1 of 6; (dose: 32.0 mg/kg/injection, schedule: Q01DX009 (ip), vehicle: saline) 6 of 6; (dose: 64.0 mg/kg/injection, schedule: Q01DX009 (ip), vehicle: saline) 1 of 6 and 2 of 6; (dose: 100.0 mg/kg/injection, schedule: Q04DX003 (ip), vehicle: other) 0 of 6 and 6 of 6.

For `O=C1OCC/C1=C/OS(=O)(=O)C(F)(F)F`, the T/C (dose: 37.5 mg/kg/injection, schedule: Q01DX009 (ip), vehicle: distilled water + Tween-80) is 126 % of control. Moreover, the survivor count (dose: 150.0 mg/kg/injection, schedule: Q01DX009 (ip), vehicle: distilled water + Tween-80) is 1 of 6 and 3 of 5.
